This is one part of the list.
Assays:
Assay in all cases: log2 fold change, soluble protein after heating vs DMSO (PISA); higher = thermal stabilisation; K562 lysate, 10 uM; active = over 0.2 and 3.5 SD of the protein, either way, in both replicates (recomputed)
[1] = compound: C#Cc1cccc(Nc2ncnc3cc(OCCOC)c(OCCOC)cc23)c1 [erlotinib]
Outline: (§1)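 Thermal stability, expressed as log-two fold change relative to solvent controls, is given from duplicates. Crude K562 extract in PBS pH 7.4 with 1 mM MgCl2, at 1 mg/mL protein, was treated with 10 μM compound for 30 min and heated in aliquots for 3 min across 48°C-58°C. After pooling, adjustment to 0.5% NP-40 at 4°C and centrifugation at 21,000xg for 90 min, supernatant protein was measured by TMTpro 16plex LC-MS/MS with channel sums equalised.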

Protein sequences, listed by entry. Tags and fused reporters are not part of them. Lines headed by an entry give the natural chain unless they say otherwise; changes in a name come on top.
UniProt Q9BQ69: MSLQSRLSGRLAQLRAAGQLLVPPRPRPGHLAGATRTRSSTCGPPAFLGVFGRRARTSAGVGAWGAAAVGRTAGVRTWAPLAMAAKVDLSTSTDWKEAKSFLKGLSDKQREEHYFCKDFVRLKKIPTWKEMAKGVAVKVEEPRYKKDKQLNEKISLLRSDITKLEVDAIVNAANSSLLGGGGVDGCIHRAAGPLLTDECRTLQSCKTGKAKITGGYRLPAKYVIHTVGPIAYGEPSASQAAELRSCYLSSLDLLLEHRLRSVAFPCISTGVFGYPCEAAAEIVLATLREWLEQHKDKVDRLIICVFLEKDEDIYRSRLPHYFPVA
UniProt P33908: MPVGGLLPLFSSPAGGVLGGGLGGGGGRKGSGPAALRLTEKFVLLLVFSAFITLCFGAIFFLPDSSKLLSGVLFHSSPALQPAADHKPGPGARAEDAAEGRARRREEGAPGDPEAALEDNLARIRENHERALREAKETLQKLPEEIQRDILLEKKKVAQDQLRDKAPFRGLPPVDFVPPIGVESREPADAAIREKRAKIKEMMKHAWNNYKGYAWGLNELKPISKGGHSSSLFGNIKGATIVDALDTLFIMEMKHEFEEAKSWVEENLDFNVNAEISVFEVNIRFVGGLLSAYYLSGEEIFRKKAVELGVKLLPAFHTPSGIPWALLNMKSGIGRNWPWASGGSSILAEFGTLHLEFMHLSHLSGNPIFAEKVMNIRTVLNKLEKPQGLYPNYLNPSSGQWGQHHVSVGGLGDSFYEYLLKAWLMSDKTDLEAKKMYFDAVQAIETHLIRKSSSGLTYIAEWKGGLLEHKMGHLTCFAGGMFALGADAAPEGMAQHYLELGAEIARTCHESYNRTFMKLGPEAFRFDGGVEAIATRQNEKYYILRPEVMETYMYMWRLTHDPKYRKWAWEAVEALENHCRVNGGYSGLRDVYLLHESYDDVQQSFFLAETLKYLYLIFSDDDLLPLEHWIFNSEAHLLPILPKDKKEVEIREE
UniProt P27816: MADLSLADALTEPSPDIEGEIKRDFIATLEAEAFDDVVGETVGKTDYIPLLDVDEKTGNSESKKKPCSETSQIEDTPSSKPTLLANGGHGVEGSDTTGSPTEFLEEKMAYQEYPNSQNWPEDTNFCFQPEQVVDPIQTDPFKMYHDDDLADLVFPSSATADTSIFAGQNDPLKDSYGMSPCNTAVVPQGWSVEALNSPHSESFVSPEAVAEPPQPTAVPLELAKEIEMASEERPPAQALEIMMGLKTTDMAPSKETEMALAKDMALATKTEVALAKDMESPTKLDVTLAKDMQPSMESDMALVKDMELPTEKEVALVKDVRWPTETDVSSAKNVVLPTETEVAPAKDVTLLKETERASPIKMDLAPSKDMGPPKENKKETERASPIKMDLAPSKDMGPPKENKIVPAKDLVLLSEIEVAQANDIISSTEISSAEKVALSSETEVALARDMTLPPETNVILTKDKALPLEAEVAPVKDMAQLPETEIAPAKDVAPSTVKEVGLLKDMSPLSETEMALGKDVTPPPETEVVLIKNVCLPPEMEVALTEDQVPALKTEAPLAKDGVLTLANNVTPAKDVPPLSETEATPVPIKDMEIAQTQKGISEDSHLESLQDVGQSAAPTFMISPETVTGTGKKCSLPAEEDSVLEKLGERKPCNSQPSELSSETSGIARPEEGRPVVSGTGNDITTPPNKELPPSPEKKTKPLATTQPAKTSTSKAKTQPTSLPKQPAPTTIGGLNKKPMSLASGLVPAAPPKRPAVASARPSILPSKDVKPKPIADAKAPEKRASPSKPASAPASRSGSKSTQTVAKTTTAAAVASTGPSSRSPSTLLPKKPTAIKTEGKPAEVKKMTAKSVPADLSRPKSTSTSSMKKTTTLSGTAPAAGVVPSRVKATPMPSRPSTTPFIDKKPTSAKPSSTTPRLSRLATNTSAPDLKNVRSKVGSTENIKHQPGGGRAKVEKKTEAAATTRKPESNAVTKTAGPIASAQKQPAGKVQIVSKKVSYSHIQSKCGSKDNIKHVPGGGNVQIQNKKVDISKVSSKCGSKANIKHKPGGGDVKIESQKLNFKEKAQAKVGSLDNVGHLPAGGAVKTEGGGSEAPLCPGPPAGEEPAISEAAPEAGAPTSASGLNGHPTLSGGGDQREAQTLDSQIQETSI
UniProt Q9HD34: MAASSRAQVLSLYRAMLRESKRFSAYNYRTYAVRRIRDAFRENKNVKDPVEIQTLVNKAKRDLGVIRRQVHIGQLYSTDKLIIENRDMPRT
UniProt Q9Y6D9: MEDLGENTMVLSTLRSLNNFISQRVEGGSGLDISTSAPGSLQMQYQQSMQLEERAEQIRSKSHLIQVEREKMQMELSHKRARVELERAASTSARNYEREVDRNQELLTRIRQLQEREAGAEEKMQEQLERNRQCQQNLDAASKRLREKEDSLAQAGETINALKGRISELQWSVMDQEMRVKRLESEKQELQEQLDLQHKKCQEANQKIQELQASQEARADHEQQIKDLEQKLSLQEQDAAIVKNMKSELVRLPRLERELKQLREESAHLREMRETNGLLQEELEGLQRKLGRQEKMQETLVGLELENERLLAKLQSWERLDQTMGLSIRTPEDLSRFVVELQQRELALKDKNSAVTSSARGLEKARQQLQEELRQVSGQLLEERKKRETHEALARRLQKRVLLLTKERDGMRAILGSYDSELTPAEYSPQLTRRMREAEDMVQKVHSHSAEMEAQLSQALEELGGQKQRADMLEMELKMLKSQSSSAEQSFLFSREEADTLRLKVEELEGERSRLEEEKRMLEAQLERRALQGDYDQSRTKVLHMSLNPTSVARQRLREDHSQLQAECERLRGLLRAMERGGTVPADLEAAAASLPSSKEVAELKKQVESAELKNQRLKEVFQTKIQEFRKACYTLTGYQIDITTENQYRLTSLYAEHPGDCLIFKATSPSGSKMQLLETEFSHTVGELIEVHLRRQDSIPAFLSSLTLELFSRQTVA
UniProt P20645: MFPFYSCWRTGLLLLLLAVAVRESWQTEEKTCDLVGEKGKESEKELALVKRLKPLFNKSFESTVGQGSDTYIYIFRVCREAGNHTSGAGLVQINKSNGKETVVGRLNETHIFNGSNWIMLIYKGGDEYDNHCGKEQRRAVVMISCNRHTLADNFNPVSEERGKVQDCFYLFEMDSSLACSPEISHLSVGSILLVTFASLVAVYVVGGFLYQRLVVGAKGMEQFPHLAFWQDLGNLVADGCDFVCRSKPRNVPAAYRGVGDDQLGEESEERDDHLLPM
UniProt Q16539, whole entry, looked up: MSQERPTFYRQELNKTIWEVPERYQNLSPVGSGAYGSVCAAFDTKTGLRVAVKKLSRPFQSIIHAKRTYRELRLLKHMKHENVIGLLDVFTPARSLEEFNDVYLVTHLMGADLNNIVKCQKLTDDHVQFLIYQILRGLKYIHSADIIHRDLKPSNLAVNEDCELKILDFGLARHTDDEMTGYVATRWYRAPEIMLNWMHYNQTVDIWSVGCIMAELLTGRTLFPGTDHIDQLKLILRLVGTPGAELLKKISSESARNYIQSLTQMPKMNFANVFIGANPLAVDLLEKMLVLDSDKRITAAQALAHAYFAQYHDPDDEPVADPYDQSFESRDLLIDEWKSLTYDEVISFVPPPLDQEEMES
UniProt Q8N5G2: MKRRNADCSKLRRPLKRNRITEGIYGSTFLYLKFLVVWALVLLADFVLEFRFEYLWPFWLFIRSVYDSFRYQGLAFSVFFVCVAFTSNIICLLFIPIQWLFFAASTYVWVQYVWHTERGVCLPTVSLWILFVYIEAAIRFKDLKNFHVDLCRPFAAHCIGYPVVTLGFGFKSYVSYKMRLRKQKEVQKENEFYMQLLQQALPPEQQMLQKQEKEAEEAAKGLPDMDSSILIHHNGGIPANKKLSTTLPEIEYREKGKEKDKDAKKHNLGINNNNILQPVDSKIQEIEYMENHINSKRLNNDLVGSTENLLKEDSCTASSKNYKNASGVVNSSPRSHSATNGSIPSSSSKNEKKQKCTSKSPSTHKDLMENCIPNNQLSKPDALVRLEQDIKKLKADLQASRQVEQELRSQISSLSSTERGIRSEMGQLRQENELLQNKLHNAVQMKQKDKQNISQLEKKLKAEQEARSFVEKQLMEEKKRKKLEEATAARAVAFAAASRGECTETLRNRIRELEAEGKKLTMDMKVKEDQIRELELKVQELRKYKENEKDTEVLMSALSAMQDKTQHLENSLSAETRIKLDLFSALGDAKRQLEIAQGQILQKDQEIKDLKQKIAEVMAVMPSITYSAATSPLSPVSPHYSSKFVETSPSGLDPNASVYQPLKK
UniProt Q6ZN28: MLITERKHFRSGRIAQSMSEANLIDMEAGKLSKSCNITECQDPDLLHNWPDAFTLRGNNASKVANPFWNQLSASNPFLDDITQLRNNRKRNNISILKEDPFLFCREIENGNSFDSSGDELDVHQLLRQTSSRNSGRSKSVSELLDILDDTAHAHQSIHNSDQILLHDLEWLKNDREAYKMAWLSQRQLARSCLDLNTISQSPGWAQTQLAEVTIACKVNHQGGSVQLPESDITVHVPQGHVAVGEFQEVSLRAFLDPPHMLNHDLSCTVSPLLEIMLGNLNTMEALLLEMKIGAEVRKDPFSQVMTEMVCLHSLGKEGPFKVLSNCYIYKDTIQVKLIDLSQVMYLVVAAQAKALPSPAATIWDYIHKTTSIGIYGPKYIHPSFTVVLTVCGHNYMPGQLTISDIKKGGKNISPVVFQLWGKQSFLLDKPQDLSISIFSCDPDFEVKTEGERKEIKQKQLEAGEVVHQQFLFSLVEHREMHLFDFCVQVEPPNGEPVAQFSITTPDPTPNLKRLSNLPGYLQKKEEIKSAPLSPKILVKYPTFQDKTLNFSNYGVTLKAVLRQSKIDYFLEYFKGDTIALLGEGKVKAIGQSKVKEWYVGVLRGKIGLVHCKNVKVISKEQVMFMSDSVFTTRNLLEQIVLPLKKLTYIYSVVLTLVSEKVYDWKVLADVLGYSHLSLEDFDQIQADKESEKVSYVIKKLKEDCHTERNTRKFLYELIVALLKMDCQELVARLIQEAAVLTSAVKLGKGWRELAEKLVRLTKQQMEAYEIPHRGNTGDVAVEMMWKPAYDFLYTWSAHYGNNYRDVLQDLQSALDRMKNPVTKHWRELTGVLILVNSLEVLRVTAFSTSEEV
UniProt O95819: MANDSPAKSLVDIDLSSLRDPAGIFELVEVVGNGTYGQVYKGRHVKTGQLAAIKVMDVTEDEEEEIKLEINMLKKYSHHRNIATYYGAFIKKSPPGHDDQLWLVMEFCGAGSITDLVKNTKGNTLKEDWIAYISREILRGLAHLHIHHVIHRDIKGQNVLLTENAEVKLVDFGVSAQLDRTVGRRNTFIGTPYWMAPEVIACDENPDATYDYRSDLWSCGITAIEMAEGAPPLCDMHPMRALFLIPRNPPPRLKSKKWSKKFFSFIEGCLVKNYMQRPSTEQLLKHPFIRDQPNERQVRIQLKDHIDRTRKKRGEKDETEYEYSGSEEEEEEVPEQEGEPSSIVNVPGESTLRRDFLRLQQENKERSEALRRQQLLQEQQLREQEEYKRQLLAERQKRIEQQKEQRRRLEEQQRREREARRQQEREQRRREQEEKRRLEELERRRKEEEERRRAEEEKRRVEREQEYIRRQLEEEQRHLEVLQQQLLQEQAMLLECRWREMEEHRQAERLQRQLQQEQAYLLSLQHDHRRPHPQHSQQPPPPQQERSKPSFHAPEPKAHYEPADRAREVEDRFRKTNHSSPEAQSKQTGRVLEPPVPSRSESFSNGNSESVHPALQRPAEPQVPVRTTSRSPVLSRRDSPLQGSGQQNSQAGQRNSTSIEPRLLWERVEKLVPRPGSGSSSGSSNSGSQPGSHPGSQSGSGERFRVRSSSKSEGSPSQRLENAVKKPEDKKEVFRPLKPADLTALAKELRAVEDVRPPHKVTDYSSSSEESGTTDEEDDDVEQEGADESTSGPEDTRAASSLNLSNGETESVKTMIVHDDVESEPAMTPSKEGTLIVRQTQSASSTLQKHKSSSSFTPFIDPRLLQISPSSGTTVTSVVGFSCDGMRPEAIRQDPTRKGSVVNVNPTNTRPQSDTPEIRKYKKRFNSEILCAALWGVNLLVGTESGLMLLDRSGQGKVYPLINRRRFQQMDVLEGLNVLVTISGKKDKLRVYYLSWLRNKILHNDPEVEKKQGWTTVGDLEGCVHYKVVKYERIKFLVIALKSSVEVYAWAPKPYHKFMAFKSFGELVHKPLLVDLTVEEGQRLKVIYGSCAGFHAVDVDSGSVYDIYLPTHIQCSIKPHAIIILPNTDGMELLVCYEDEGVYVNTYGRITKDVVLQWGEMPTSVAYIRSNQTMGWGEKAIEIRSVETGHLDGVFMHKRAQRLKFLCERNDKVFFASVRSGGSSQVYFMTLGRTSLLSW
UniProt O95372: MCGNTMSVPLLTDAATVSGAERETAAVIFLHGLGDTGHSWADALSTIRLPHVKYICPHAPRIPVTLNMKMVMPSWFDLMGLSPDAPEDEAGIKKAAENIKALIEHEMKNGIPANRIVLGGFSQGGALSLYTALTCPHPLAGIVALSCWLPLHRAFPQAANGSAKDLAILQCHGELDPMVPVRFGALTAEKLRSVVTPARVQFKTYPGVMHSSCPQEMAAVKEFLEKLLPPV

[2] = compound: C/C(=N\NC(=O)C1=CC(=CC=C1)S(=O)(=O)N2CCOCC2)/C3=C(C=CC(=C3)Cl)O
Outline: as §1

[3] = compound: C1=CC(=CC=C1C2=NC3=C(N2)C=C(C=C3)C(=O)N)OC4=CC=C(C=C4)Cl
Outline: as §1

[4] = compound: C1=CC2=C(C=CC(=C2)/C=C\3/C(=O)NC(=NCC4=CC=CS4)S3)N=C1
Outline: as §1

[5] = compound: C1=CC2=NC=CN=C2C=C1/C=C/3\C(=O)NC(=O)S3
Outline: as §1

[6] = compound: C1=CC=C(C=C1)C2=NC(=C(N2)C3=CC=NC=C3)C4=CC(=C(C=C4)Cl)O
Outline: as §1

[7] = compound: C1=CC=C2C(=C1)C3=NNC4=CC=CC(=C43)C2=O
Outline: as §1

[8] = compound: C1CCN(C1)C(=O)NC2=CC=CC(=C2)NC3=NC=C(C(=N3)NCCC4=CN=CN4)Br
Outline: as §1

[9] = compound: C1CN(CCC1(CC2=CC=C(C=C2)Cl)N)C3=NC=NC4=C3C=CN4
Outline: as §1

[10] = compound: C1COCCN1CCN2C3=CC=CC=C3N=C2NC(=O)C4=CC(=CC=C4)[N+](=O)[O-] [IRAK-1-4 Inhibitor I]
Outline: as §1

Target	log2 fold change [1]	log2 fold change [2]	log2 fold change [3]	log2 fold change [4]	log2 fold change [5]	log2 fold change [6]	log2 fold change [7]	log2 fold change [8]	log2 fold change [9]	log2 fold change [10]
LTO1 (UniProt Q8WV07)	inactive: 0.003	inactive: 0.034	inactive: 0.059	inactive: -0.123	inactive: -0.005	inactive: -0.006	inactive: 0.06	inactive: 0.102	inactive: -0.062	inactive: -0.034
LZTFL1 (UniProt Q9NQ48)	inactive: -0.035	inactive: 0.045	inactive: -0.016	inactive: 0.016	inactive: -0.005	inactive: -0.063	inactive: -0.011	inactive: 0.002	inactive: -0.016	inactive: 0.004
MACROD1 (UniProt Q9BQ69)	inactive: 0.025	inactive: 0.017	inactive: 0.009	inactive: 0.02	inactive: 0.283	inactive: -0.005	inactive: -0.074	inactive: 0.131	inactive: -0.002	inactive: 0.081
MACF1 isoform 3 (UniProt Q9UPN3)	inactive: -0.009	inactive: 0.018	inactive: -0.011	inactive: 0.008	inactive: -0.026	inactive: -0.003	inactive: 0	inactive: -0.016	inactive: -0.007	inactive: -0.006
MAP4 (UniProt E7EVA0)	inactive: 0.056	inactive: 0.01	inactive: 0.113	inactive: 0.045	inactive: -0.072	inactive: -0.004	inactive: -0.076	inactive: 0.071	inactive: 0.061	inactive: 0.037
MAN1A1 (UniProt P33908)	inactive: 0.027	inactive: 0.001	inactive: 0.021	inactive: -0.034	inactive: 0.024	inactive: -0.039	inactive: 0.035	inactive: 0.066	inactive: -0.019	inactive: -0.007
MAST4 (UniProt O15021)	inactive: -0.019	inactive: -0.026	inactive: -0.031	inactive: 0.027	inactive: -0.044	inactive: 0.01	active: 0.384	inactive: 0.149	inactive: -0.011	inactive: -0.008
MAP4 (UniProt P27816)	inactive: 0.001	inactive: -0.013	inactive: 0.031	inactive: -0.003	inactive: -0.001	inactive: 0.023	inactive: -0.002	inactive: -0.007	inactive: 0.003	inactive: 0.024
LYRM4 (UniProt Q9HD34)	inactive: -0.009	inactive: 0.016	inactive: 0.02	inactive: -0.117	inactive: -0.017	inactive: -0.011	inactive: -0.002	inactive: -0.02	inactive: 0.06	inactive: 0.005
MAPKAPK2 (UniProt P49137)	inactive: -0.047	inactive: 0.041	inactive: 0	inactive: 0.192	inactive: 0.003	inactive: 0.013	inactive: 0.026	inactive: -0.02	inactive: 0.018	inactive: -0.017
MALSU1 (UniProt Q96EH3)	inactive: 0.054	inactive: -0.022	inactive: -0.041	inactive: 0.025	inactive: -0.006	inactive: 0.035	inactive: -0.168	inactive: -0.022	inactive: -0.003	inactive: 0.04
MAD1L1 (UniProt Q9Y6D9)	inactive: -0.036	inactive: 0.032	inactive: -0.022	inactive: 0.008	inactive: -0.027	inactive: 0.003	inactive: 0.002	inactive: -0.042	inactive: -0.007	inactive: -0.03
M6PR (UniProt P20645)	inactive: -0.044	inactive: -0.044	inactive: 0.023	inactive: 0.053	inactive: -0.039	inactive: 0.052	inactive: 0.004	inactive: -0.001	inactive: -0.04	inactive: -0.027
MAN1B1 (UniProt Q9UKM7)	inactive: 0.001	inactive: -0.122	inactive: -0.071	inactive: 0.01	inactive: -0.046	inactive: -0.031	inactive: -0.101	inactive: 0.027	inactive: 0.004	inactive: -0.036
MAPK9 (UniProt P45984)	inactive: -0.001	inactive: 0.017	inactive: -0.018	inactive: -0.015	inactive: 0.014	inactive: 0.068	active: 0.393	inactive: 0.061	inactive: -0.032	inactive: -0.014
MAPK14 (UniProt Q16539)	inactive: 0.044	inactive: 0.038	inactive: -0.1	inactive: -0.05	inactive: -0.012	active: 0.82	inactive: 0.081	inactive: -0.076	inactive: 0.015	inactive: 0.013
MACF1, A0A0A6YYJ5	inactive: 0.009	inactive: 0.089	inactive: -0.013	inactive: -0.029	inactive: 0.036	inactive: 0.096	inactive: -0.133	inactive: 0.016	inactive: 0.071	inactive: -0.003
MACO1 (UniProt Q8N5G2)	inactive: -0.072	inactive: -0.009	inactive: -0.005	inactive: -0.161	inactive: 0.062	inactive: -0.022	active: -0.336	inactive: 0	inactive: 0.012	inactive: 0.022
MAP3K20 (UniProt Q9NYL2)	inactive: -0.007	inactive: -0.018	inactive: 0.011	inactive: -0.099	inactive: 0	inactive: 0.008	inactive: 0.032	inactive: -0.007	inactive: 0.023	inactive: -0.009
MAP1LC3B2 (UniProt A6NCE7)	inactive: -0.004	inactive: 0.018	inactive: -0.028	inactive: -0.027	inactive: 0.011	inactive: 0.001	inactive: -0.011	inactive: 0.029	inactive: 0.018	inactive: -0.002
MACC1 (UniProt Q6ZN28)	inactive: 0.003	inactive: -0.091	inactive: 0.02	inactive: -0.018	inactive: 0.009	inactive: 0.041	inactive: 0.017	inactive: -0.075	inactive: 0.005	inactive: -0.019
MAGEC2 (UniProt Q9UBF1)	inactive: 0.011	inactive: -0.002	inactive: 0.04	inactive: 0.001	inactive: 0.026	inactive: -0.019	inactive: 0.049	inactive: 0.063	inactive: -0.015	inactive: 0.022
MAP4K4 isoform 3 (UniProt O95819)	inactive: -0.003	inactive: -0.025	inactive: 0.099	inactive: 0.038	inactive: -0.027	inactive: -0.093	inactive: -0.077	inactive: 0.008	inactive: -0.011	inactive: 0.059
LYPLA2 (UniProt O95372)	inactive: 0.032	inactive: 0.021	inactive: 0.029	inactive: -0.005	inactive: -0.036	inactive: -0.009	inactive: 0.033	inactive: -0.107	inactive: -0.027	inactive: -0.058
MACF1 (UniProt H3BQK9)	inactive: -0.003	inactive: 0	inactive: -0.033	inactive: -0.003	inactive: 0.009	inactive: 0.035	inactive: -0.028	inactive: -0.02	inactive: -0.021	inactive: -0.027
MAPK8IP3 (UniProt Q9UPT6)	inactive: -0.038	inactive: 0.009	inactive: 0.003	inactive: -0.018	inactive: -0.017	inactive: -0.017	inactive: 0.044	inactive: 0.032	inactive: -0.015	inactive: -0.011
MAK16 (UniProt Q9BXY0)	inactive: -0.012	inactive: -0.022	inactive: -0.09	inactive: 0.012	inactive: 0.002	inactive: 0.047	inactive: -0.054	inactive: -0.019	inactive: 0.031	inactive: -0.039

Complete entries, quoted from the list. Values in the order: log2 fold change [1]	log2 fold change [2]	log2 fold change [3]	log2 fold change [4]	log2 fold change [5]	log2 fold change [6]	log2 fold change [7]	log2 fold change [8]	log2 fold change [9]	log2 fold change [10]
MALSU1 (UniProt Q96EH3) in the list: inactive: 0.054	inactive: -0.022	inactive: -0.041	inactive: 0.025	inactive: -0.006	inactive: 0.035	inactive: -0.168	inactive: -0.022	inactive: -0.003	inactive: 0.04
MAK16 (UniProt Q9BXY0) in the list: inactive: -0.012	inactive: -0.022	inactive: -0.09	inactive: 0.012	inactive: 0.002	inactive: 0.047	inactive: -0.054	inactive: -0.019	inactive: 0.031	inactive: -0.039
